In publication PMC11639775:
No constants are given. Whether binding was seen depends on the method and setting. Binding seen in cells or lysates may run through a third protein. Some binding calls cover weakened binding; strength is not graded here.

By UniProt entry, the sequences of proteins in these tests, tags left out. Residues count along the entry.
UniProt P11362, residues 22-822: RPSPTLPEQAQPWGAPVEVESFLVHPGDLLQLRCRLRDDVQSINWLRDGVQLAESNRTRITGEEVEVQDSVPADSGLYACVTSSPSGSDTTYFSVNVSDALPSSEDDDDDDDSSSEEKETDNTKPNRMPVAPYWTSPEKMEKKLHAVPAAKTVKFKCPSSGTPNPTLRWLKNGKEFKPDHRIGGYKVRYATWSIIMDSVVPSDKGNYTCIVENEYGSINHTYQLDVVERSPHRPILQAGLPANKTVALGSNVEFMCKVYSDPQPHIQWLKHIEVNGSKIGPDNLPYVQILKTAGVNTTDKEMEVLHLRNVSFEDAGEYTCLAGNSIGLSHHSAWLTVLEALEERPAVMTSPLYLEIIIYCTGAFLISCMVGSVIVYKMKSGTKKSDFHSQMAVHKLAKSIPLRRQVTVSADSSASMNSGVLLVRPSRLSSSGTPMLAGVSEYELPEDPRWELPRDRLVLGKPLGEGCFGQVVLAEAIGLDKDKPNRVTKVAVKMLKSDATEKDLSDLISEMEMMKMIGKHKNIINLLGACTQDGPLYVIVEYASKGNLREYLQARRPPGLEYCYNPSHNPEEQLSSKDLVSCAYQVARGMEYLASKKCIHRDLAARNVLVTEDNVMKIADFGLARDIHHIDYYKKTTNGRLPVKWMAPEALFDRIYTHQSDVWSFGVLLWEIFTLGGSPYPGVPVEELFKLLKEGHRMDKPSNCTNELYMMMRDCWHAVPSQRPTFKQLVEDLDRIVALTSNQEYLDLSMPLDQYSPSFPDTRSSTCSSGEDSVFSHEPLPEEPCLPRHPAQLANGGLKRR
UniProt P46934: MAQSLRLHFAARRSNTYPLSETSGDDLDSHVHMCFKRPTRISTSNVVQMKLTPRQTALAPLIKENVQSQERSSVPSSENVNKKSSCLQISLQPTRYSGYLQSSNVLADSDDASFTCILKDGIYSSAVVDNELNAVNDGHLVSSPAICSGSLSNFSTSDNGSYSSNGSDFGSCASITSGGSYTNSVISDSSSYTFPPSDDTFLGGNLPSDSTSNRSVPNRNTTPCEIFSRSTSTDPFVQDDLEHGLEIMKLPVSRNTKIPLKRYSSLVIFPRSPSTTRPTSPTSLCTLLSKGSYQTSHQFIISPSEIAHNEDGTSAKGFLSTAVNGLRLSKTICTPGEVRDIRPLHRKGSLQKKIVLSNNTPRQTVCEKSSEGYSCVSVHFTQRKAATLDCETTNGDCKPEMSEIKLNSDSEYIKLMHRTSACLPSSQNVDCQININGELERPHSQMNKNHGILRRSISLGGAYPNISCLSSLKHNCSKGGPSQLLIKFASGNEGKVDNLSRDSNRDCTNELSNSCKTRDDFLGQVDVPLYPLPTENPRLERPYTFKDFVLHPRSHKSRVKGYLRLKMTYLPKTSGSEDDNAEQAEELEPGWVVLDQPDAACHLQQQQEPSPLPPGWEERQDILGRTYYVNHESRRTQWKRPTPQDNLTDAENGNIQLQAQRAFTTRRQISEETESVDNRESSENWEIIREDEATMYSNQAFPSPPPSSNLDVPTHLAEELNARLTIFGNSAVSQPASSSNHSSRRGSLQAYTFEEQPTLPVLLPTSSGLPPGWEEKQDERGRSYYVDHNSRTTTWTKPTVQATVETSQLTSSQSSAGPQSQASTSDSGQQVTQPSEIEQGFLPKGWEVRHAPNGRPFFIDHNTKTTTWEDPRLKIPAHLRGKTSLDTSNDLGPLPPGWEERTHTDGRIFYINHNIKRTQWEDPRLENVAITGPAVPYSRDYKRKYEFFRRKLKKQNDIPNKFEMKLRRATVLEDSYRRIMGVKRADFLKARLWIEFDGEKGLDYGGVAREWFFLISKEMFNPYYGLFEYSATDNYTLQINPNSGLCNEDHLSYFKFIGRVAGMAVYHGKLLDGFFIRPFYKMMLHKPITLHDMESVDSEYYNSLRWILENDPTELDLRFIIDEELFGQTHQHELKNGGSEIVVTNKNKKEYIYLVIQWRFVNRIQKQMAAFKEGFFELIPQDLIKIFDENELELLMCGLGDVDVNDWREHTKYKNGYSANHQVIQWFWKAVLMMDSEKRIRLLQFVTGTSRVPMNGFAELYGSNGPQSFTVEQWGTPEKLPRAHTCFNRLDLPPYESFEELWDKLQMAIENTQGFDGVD

B1: phospholipase Cγ1 (PLCγ1) (enzyme, UniProt P19174 1-1290)
chain: MAGAASPCANGCGPGAPSDAEVLHLCRSLEVGTVMTLFYSKKSQRPERKTFQVKLETRQITWSRGADKIEGAIDIREIKEIRPGKTSRDFDRYQEDPAFRPDQSHCFVILYGMEFRLKTLSLQATSEDEVNMWIKGLTWLMEDTLQAPTPLQIERWLRKQFYSVDRNREDRISAKDLKNMLSQVNYRVPNMRFLRERLTDLEQRSGDITYGQFAQLYRSLMYSAQKTMDLPFLEASTLRAGERPELCRVSLPEFQQFLLDYQGELWAVDRLQVQEFMLSFLRDPLREIEEPYFFLDEFVTFLFSKENSVWNSQLDAVCPDTMNNPLSHYWISSSHNTYLTGDQFSSESSLEAYARCLRMGCRCIELDCWDGPDGMPVIYHGHTLTTKIKFSDVLHTIKEHAFVASEYPVILSIEDHCSIAQQRNMAQYFKKVLGDTLLTKPVEISADGLPSPNQLKRKILIKHKKLAEGSAYEEVPTSMMYSENDISNSIKNGILYLEDPVNHEWYPHYFVLTSSKIYYSEETSSDQGNEDEEEPKEVSSSTELHSNEKWFHGKLGAGRDGRHIAERLLTEYCIETGAPDGSFLVRESETFVGDYTLSFWRNGKVQHCRIHSRQDAGTPKFFLTDNLVFDSLYDLITHYQQVPLRCNEFEMRLSEPVPQTNAHESKEWYHASLTRAQAEHMLMRVPRDGAFLVRKRNEPNSYAISFRAEGKIKHCRVQQEGQTVMLGNSEFDSLVDLISYYEKHPLYRKMKLRYPINEEALEKIGTAEPDYGALYEGRNPGFYVEANPMPTFKCAVKALFDYKAQREDELTFIKSAIIQNVEKQEGGWWRGDYGGKKQLWFPSNYVEEMVNPVALEPEREHLDENSPLGDLLRGVLDVPACQIAIRPEGKNNRLFVFSISMASVAHWSLDVAADSQEELQDWVKKIREVAQTADARLTEGKIMERRKKIALELSELVVYCRPVPFDEEKIGTERACYRDMSSFPETKAEKYVNKAKGKKFLQYNRLQLSRIYPKGQRLDSSNYDPLPMWICGSQLVALNFQTPDKPMQMNQALFMTGRHCGYVLQPSTMRDEAFDPFDKSSLRGLEPCAISIEVLGARHLPKNGRGIVCPFVEIEVAGAEYDSTKQKTEFVVDNGLNPVWPAKPFHFQISNPEFAFLRFVVYEEDMFSDQNFLAQATFPVKGLKTGYRAVPLKNNYSEDLELASLLIKIDIFPAKENGDLSPFSGTSLRERGSDASGQLFHGRAREGSFESRYQQPFEDFRISQEHLADHFDSRERRAPRRTRVNGDNRL

Molecular target: FGFR1 fused to enhanced green fluorescent protein (FGFR1-EGFP) (UniProt P11362)
Assay: co-IP; anti-FGFR1 antibody (1:50) on Dynabeads M-280 sheep anti-rabbit IgG; 500 µg lysate of U251 control cells or U251 cells with SPRY2-OE, transfected with FGFR1-EGFP, untreated or treated 10 min with FGF2 (100 ng/mL) and heparan sulfate (10 µg/mL); IP lysis buffer 50 mM Tris/HCl pH 7.5, 10% glycerol, 150 mM NaCl, 1% Nonidet P-40, 0.25% sodium deoxycholate, 2 mM EDTA; 1 h at 4 °C; Western blot

Molecule | binding
neural precursor cell-expressed developmentally downregulated protein 4 (NEDD4) (from UniProt P46934 1-1319) (enzyme) | no binding
B1 | binds
